Laboratory results reported in PubChem BioAssay AID248 (DTP/NCI, 2004).
The list does not hold the whole screen: it gathers tests that were run many times, whatever their T/C, doses with no T/C, and many T/C values between a quarter and a half above the control. Other doses and runs of a compound stand elsewhere. T/C: endpoint of the treated group in % of that of the vehicle group. Where survival is the endpoint, the PubChem record calls one and a half times the control and up active, and a quarter to a half above the control has no call in these data; cut-offs in other NCI protocols can differ. Schedule codes are those of the source, taken here to give the interval after Q, in days (D) or hours (H), and the number of doses after X. Brackets with × stand for listed records that agree. Some entries hold several experiments; their values stand side by side, smallest first. Some schedules carry Z or #; the key to these is not given.

System: L1210 leukemia ip in BDF1 mice, survival T/C
Experiment: NCI In Vivo Anticancer Drug Screen. Data for tumor model L1210 Leukemia (intraperitoneal) in B6D2F1 (BDF1) mice
Conditions: T/C endpoint: mean survival time, vehicle: saline, higher T/C = longer survival

`CSc1ncnc2c1ncn2C1OC(CO)C(O)C1O` (stereo unspecified) was tested, and the T/C (dose: 1.0 mg/kg/injection, schedule: Q#A X Z (ip)) was 128 % of control, the T/C (dose: 1.63 mg/kg/injection, schedule: Q07DX003 (ip)) was 130 % of control and the T/C (dose: 2.0 mg/kg/injection, schedule: Q#A X Z (ip)) was 128 and 136 % of control. For the same compound, the T/C (dose: 2.5 mg/kg/injection, schedule: Q06HX068 (ip)) was 129 % of control, the T/C (dose: 3.2 mg/kg/injection, schedule: Q07DX003 (ip)) was 125 % of control and the T/C (dose: 4.0 mg/kg/injection, schedule: Q01DX009 (ip)) was 101, 113, 117, 120 % of control. The T/C (dose: 4.0 mg/kg/injection, schedule: Q01DX Z (ip)) was 126 and 129 % of control, the T/C (dose: 4.0 mg/kg/injection, schedule: Q#A X Z (ip)) was 134 and 145 % of control and the T/C (dose: 5.0 mg/kg/injection, schedule: Q01DX010 (ip)) was 135 % of control. For the same compound, the T/C (dose: 5.0 mg/kg/injection, schedule: Q06HX068 (ip)) was 141 % of control, the T/C (dose: 5.3 mg/kg/injection, schedule: Q06HX012 (ip)) was 129 % of control and the T/C (dose: 6.25 mg/kg/injection, schedule: Q01DX009 (ip)) was 131 % of control. The T/C (dose: 8.0 mg/kg/injection, schedule: Q01DX009 (ip), evaluated on day 5) was 119 and 138 % of control, the T/C (dose: 8.0 mg/kg/injection, schedule: Q01DX009 (ip), evaluated on day 30) was 118, 128 (2×), 129 % of control and the T/C (dose: 8.0 mg/kg/injection, schedule: Q01DX009 (ip), evaluated on day 45) was 119 and 138 % of control. For the same compound, the T/C (dose: 8.0 mg/kg/injection, schedule: Q01DX Z (ip)) was 132, 140, 146 % of control, the T/C (dose: 8.0 mg/kg/injection, schedule: Q06HX012 (ip)) was 133 % of control and the T/C (dose: 8.0 mg/kg/injection, schedule: Q12HX012 (ip)) was 132 % of control. The T/C (dose: 8.0 mg/kg/injection, schedule: Q#A X Z (ip)) was 147 % of control, the T/C (dose: 8.8 mg/kg/injection, schedule: Q01DX015 (ip)) was 127 % of control and the T/C (dose: 9.0 mg/kg/injection, schedule: Q01DX015 (ip), evaluated on day 5) was 124, 126, 128, 129 (2×), 134, 136 (3×), 139 (2×), 140 (2×), 143 % of control. The T/C (dose: 9.0 mg/kg/injection, schedule: Q01DX015 (ip), evaluated on day 35) was 140 % of control, the T/C (dose: 9.0 mg/kg/injection, schedule: Q01DX015 (ip), evaluated on day 45) was 140 % of control and the T/C (dose: 9.0 mg/kg/injection, schedule: Q01DX015 (ip), evaluated on day 46) was 121 % of control. For the same compound, the T/C (dose: 9.0 mg/kg/injection, schedule: Q01DX015 (ip), run until all animals had died) was 125 % of control, the T/C (dose: 9.0 mg/kg/injection, schedule: Q## X015 (ip)) was 129, 134, 143 % of control and the T/C (dose: 10.0 mg/kg/injection, schedule: Q01DX010 (ip)) was 130, 136, 142 % of control. The T/C (dose: 10.0 mg/kg/injection, schedule: Q01DX017 (ip)) was 126 % of control, the T/C (dose: 10.0 mg/kg/injection, schedule: Q#A X034 (ip)) was 131 % of control and the T/C (dose: 11.0 mg/kg/injection, schedule: Q01DX015 (ip)) was 128 and 131 % of control. The T/C (dose: 11.7 mg/kg/injection, schedule: Q01DX015 (ip)) was 132 % of control, the T/C (dose: 12.0 mg/kg/injection, schedule: Q01DX009 (ip), evaluated on day 5) was 127 and 130 % of control and the T/C (dose: 12.0 mg/kg/injection, schedule: Q01DX009 (ip), evaluated on day 45) was 127 and 130 % of control. For the same compound, the T/C (dose: 12.0 mg/kg/injection, schedule: Q01DX015 (ip)) was 129 % of control, the T/C (dose: 12.5 mg/kg/injection, schedule: Q01DX005 (ip)) was 132 and 134 % of control and the T/C (dose: 12.5 mg/kg/injection, schedule: Q01DX010 (ip)) was 132 and 139 % of control. For the same compound, the T/C (dose: 13.0 mg/kg/injection, schedule: Q01DX015 (ip)) was 130 and 136 % of control, the T/C (dose: 13.0 mg/kg/injection, schedule: Q02DX008 (ip)) was 135 % of control and the T/C (dose: 13.0 mg/kg/injection, schedule: Q06HX012 (ip)) was 145 % of control. For the same compound, the T/C (dose: 13.0 mg/kg/injection, schedule: Q07DX003 (ip)) was 125 % of control (2×), the T/C (dose: 13.0 mg/kg/injection, schedule: Q12HX006 (ip)) was 137 % of control and the T/C (dose: 13.0 mg/kg/injection, schedule: Q12HX012 (ip)) was 148 % of control. The T/C (dose: 14.0 mg/kg/injection, schedule: Q01DX015 (ip), evaluated on day 5) was 134, 137, 138, 139 (2×), 141, 145, 147 (2×), 148, 150, 151, 158, 159 % of control, the T/C (dose: 14.0 mg/kg/injection, schedule: Q01DX015 (ip), evaluated on day 35) was 160 % of control and the T/C (dose: 14.0 mg/kg/injection, schedule: Q01DX015 (ip), evaluated on day 45) was 150 % of control. For the same compound, the T/C (dose: 14.0 mg/kg/injection, schedule: Q## X015 (ip)) was 138 and 141 % of control, the T/C (dose: 14.0 mg/kg/injection, schedule: Q## X032 (ip)) was 126 % of control and the T/C (dose: 15.0 mg/kg/injection, schedule: Q01DX010 (ip)) was 136 % of control. For the same compound, the T/C (dose: 15.0 mg/kg/injection, schedule: Q01DX015 (ip)) was 144 % of control, the T/C (dose: 16.0 mg/kg/injection, schedule: Q01DX009 (ip)) was 129, 134, 151, 155 % of control and the T/C (dose: 16.0 mg/kg/injection, schedule: Q01DX010 (ip)) was 129, 132, 141 % of control. The T/C (dose: 16.0 mg/kg/injection, schedule: Q01DX Z (im)) was 139 % of control, the T/C (dose: 16.0 mg/kg/injection, schedule: Q01DX Z (ip)) was 139 % of control and the T/C (dose: 17.0 mg/kg/injection, schedule: Q01DX015 (ip)) was 128 % of control. For the same compound, the T/C (dose: 17.5 mg/kg/injection, schedule: Q01DX015 (ip)) was 147 % of control, the T/C (dose: 18.0 mg/kg/injection, schedule: Q01DX009 (ip), evaluated on day 5) was 133 and 135 % of control and the T/C (dose: 18.0 mg/kg/injection, schedule: Q01DX009 (ip), evaluated on day 45) was 133 and 135 % of control. For the same compound, the T/C (dose: 18.0 mg/kg/injection, schedule: Q01DX015 (ip)) was 144 % of control, the T/C (dose: 20.0 mg/kg/injection, schedule: Q01DX003 (ip), evaluated on day 5) was 141 % of control and the T/C (dose: 20.0 mg/kg/injection, schedule: Q01DX003 (ip), evaluated on day 35) was 141 % of control. For the same compound, the T/C (dose: 20.0 mg/kg/injection, schedule: Q01DX017 (ip)) was 127 % of control, the T/C (dose: 20.0 mg/kg/injection, schedule: Q02DX008 (ip)) was 135 % of control and the T/C (dose: 20.0 mg/kg/injection, schedule: Q06HX012 (ip)) was 135 % of control. For the same compound, the T/C (dose: 20.0 mg/kg/injection, schedule: Q12HX006 (ip)) was 136 % of control, the T/C (dose: 21.0 mg/kg/injection, schedule: Q01DX015 (ip), evaluated on day 5) was 147, 148, 152 (2×), 158, 163, 166, 167, 169, 175 (2×), 181, 186, 194 % of control and the T/C (dose: 21.0 mg/kg/injection, schedule: Q01DX015 (ip), evaluated on day 35) was 175 % of control. The T/C (dose: 21.0 mg/kg/injection, schedule: Q01DX015 (ip), evaluated on day 45) was 181 % of control, the T/C (dose: 21.0 mg/kg/injection, schedule: Q01DX015 (ip), run until all animals had died) was 124 % of control and the T/C (dose: 21.0 mg/kg/injection, schedule: Q## X015 (ip)) was 147 % of control. The T/C (dose: 24.0 mg/kg/injection, schedule: Q## X032 (ip)) was 136 % of control and the T/C (dose: 25.0 mg/kg/injection, schedule: Q01DX005 (ip)) was 137 % of control.
